# In patent US20220106391A1:
# What was measured:
# [1] = target: canine beta-NGF (cNGF) (canine); test: competitive ELISA: supernatant of the parent hybridoma well (before subcloning) pre-incubated with biotinylated cNGF (0.1 ug/ml), then added to plate-bound cTrkA-Fc; dilution not given
# [2] = target: canine beta-NGF (cNGF) (canine); test: ELISA titration of purified antibody, 0.008 to 1 ug/ml; antigen cNGF per the axis label 'anti-cNGF subclone' and paragraph 307
Binder,binding [1],binding [2]
"16G01-02F03 (antibody, IgG2a, V domains shown) VH: EVQLQESGAELVKPGASVKLSCKASGYTFTNYWMHWVKQRPGQGLEWIGHIDPSDGETHYNQKFKDKATLTVDKSSSTAYMQLTGLTSEDSAVYYCARFLPDYWGQGTSVTVSS VL: DIVLTQTPAIMSASPGEKVTMTCRASSSVSSIYLHWYQQKPGSSPKLWIYSTSNLASGVPARFSGSGSGTSYSLTVSSVEAEDAATYYCQLYDNSPLTFGAGT",binds,binds
"26C08-02F06 (antibody, IgG1, V domains shown) VH: EVKLEESGPGLVAPSQSLSITCTVSGFSLTGYGVNWVRQPPGKGLEWLGMIWGDGSTDYNSALKSRLSISKDNSKSQVFLKMNSLQTDDTARYYCARGGYDYDVSFFDYWGQGTTLTVSS VL: DIVLTQTTSSLSASLGDRVTISCRASQDISNYLNWYQQKPDGTVKLLIYYTSRFHSGVPSRFSGSGSGTDYSLTISNLEHEDIATYFCQQGNTLPYTFGGGT",binds,binds
"31F05-02B03 (antibody, IgG1, V domains shown) VH: EVQLQQSGPGLVAPSQSLSITCTVSGFSLTGYGVNWVRQPPGKGLEWLGMIWGDGSTDYNSALKSRLSISKDNSKSQVFLKMNSLQTDDTARYYCARDGYYYGTTWYFDVWGAGTTVTVSS VL: DIQMTQTTSSLSASLGDRVTISCRASQDISNYLNWYQQKPDGTIKLLIYYTSRLHSGVPSRFSGSGSGTDYSLTISNLEQEDIATYFCQQGSTLPRTFGGGT",binds,binds

# Results, then the binder that gave them:
binding [1],binding [2],Binder
binds,binds,"20D11-02E10 (antibody, IgG1, V domains shown) VH: EVQLEESGPGLVAPSQSLSITCTVSGFSLTGYGVNWVRQPPGKGLEWLGMIWGDGSTDYNSALKSRLSISKDNSKSQVFLKMNSLQTDDTARYYCARDGYYYGTTWYFDVWGAGTTVTVSS VL: DIVITQTPLSLPVSLGDQASISCRSSQSIVHINRHTYLGWYLQKPGQSLKLLIYGVSNRFSGVPDRFSGSGSGTDFTLKISRVEAEDMGVYYCFQGTHVPFTFGSGT"
binds,binds,"15H02-02E01 (antibody, IgG1, V domains shown) VH: EVQLEQSGPGLVAPSQSLSITCTVSGFSLTGYGVNWVRQPPGKGLEWLGMIWGDGSTDYNSALKSRLSISKDNSKSQVFLKMNSLQTDDTARYYCARDGYYYGTTWYFDVWGAGTTVTVSS VL: DIVLTQSTSSLSASLGDRVTISCRASQDISNYLNWYQQKPDGTIKLLIYYTSRLHSGVPSRFSGSGSGTDYSLTISNLEQEDIATYFCQQGSTLPRTFGGGT"
binds,binds,"01B12-02B08 (antibody, IgG1, V domains shown) VH: EVKLQESGPGLVAPSQSLSITCTVSGFSLTGYGVNWVRQPPGKGLEWLGMIWGDGSTDYNSALKSRLSISKDNSKSQVFLKMNSLQTDDTARYYCARDGYYYGTTWYFDVWGAGTTVTVSS VL: DIVMTQSTSSLSASLGDRVTISCRASQDISNYLNWYQQKPDGTIKLLIYYTSRLHSGVPSRFSGSGSGTDYSLTISNLEQEDIATYFCQQGSTLPRTFGGGT"

# No constants are given. Whether binding was seen depends on the method and setting. Binding can be weak; no strength is given.
